These are yes or no findings as the source states them, for the method shown. Some entries that bind do so weakly or less than the wild type.
Columns and labels:
[1] = biological target: T1, recombinant monomeric human G6b-B (human, UniProt O95866 18-142, limits assumed); assay: plate binding assay, coated protein, 10 µg/ml antibody, A450 (FIG. 8)
T1 construct: also called G6b-B monomer; monomeric G6b-B
T1 sequence (looked up): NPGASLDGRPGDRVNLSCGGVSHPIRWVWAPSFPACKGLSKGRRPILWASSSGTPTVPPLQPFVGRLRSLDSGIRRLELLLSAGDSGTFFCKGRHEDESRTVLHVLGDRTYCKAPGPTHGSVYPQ

[2] = biological target: T2, recombinant dimeric human G6b-B (human, UniProt O95866 18-142, limits assumed); assay: as above
T2 construct: also called G6b-B dimer; dimeric G6b-B
T2 sequence (looked up): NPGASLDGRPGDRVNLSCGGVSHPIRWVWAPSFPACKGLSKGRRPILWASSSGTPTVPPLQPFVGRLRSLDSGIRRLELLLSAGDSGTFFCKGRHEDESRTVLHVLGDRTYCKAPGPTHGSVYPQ

[3] = biological target: T1, recombinant monomeric human G6b-B; assay: plate binding assay (FIG. 8)
[4] = biological target: T2, recombinant dimeric human G6b-B; assay: plate binding assay (FIG. 8)

Measured: binding

B1: anti-G6b mouse monoclonal antibody 17-4 (antibody, mouse IgG1, kappa, V domains shown)
VH: EVQLQQSGAELVKPGASVKLSCTASGFNIKETYIHWVKQRPEQGLEWIGRIDPADVYGRYDPKFQGKATITADTSSNSAYLQVSSLTSEDTAVYYCARSYGSSYGIDYWGQGTSVTVSS
VL: DIQMTQTTSSLSASLGDRVTISCRASQDISNYLNWYQQKPDGTVKLLIYYTSTLHSGVPSRFSGSGSGTDYSLTISNLEQEDVATYFCQQGYTLPWTFGGGTKLEIKR
notes: The entries may include leader peptides, since VH CDR2 residues are numbered 69 and 71; no cleavage site is stated; also called exemplary antibody 17-4; mAb 17-4
binds: all assays above

Reference: patent US20220112285A1 (UNIVERSITY OF BIRMINGHAM, published 2022)
